# Data published in the supplement of paper PMC12067093, “Discovery and optimisation of a covalent ligand for TRIM25 and its application to targeted protein ubiquitination” (Chemical Science, 2025).
# Amino acid sequences for entries named in this document (tags omitted). A change or cut given only in a name is not applied to a line headed by its entry.
# UniProt Q68EM7: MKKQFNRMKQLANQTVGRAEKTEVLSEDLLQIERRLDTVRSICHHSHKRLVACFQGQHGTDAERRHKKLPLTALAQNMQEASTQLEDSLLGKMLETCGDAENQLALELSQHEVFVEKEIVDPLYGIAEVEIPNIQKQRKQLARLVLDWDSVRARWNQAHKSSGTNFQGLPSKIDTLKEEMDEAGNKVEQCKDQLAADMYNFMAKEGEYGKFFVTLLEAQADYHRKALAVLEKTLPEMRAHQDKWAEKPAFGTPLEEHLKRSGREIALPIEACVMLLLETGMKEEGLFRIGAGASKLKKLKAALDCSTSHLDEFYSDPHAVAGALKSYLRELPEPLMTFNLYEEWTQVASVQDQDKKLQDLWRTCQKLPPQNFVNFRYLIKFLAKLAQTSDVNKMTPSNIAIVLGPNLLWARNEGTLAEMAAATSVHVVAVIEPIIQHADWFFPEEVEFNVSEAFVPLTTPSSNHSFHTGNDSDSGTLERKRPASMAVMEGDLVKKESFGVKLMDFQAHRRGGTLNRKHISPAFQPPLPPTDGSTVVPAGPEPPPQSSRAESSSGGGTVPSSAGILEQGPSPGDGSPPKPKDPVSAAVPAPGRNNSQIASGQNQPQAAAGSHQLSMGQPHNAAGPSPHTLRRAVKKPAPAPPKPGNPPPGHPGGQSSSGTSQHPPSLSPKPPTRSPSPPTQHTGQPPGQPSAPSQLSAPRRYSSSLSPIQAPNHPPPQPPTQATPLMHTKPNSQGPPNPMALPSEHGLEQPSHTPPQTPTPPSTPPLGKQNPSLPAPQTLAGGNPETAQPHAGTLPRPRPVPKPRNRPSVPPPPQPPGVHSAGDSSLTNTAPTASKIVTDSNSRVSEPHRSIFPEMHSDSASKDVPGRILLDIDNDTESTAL
# UniProt Q9NRY4: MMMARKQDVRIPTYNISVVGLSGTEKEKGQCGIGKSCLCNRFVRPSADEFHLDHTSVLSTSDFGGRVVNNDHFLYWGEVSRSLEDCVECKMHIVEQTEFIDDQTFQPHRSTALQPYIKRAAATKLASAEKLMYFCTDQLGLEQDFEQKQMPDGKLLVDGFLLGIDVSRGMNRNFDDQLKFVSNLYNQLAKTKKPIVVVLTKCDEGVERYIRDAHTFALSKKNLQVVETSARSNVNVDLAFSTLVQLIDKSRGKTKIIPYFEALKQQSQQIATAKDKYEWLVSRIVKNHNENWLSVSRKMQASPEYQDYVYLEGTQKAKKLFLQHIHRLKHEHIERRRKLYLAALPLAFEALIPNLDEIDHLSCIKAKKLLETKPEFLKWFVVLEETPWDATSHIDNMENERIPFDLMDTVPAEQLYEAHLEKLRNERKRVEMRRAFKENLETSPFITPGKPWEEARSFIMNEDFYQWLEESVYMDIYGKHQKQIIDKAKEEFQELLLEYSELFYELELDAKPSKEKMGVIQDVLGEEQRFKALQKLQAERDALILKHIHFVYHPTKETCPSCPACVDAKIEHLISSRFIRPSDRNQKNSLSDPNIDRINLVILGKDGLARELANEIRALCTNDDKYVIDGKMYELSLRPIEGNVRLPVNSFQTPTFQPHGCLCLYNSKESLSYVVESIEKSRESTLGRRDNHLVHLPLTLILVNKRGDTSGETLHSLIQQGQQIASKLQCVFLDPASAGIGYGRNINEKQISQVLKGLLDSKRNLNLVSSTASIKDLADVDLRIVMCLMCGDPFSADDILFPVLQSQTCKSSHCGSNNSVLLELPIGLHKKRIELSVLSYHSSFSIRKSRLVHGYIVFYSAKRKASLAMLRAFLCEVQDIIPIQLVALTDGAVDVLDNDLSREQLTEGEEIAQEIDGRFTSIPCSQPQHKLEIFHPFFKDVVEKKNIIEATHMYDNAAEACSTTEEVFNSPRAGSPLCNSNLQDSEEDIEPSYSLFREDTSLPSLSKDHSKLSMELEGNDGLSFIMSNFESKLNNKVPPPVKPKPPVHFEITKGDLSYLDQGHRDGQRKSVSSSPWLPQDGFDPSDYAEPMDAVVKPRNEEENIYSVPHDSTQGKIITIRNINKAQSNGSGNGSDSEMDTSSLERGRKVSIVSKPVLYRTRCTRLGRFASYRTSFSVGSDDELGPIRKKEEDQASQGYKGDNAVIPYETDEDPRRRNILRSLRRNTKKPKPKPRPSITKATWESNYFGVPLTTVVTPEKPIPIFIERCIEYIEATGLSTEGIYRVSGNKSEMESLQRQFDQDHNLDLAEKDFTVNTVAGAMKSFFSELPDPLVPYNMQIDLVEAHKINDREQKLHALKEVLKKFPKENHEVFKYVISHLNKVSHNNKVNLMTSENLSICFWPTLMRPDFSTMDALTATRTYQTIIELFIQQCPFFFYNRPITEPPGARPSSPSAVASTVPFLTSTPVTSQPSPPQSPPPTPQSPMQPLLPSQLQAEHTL
# UniProt P40616: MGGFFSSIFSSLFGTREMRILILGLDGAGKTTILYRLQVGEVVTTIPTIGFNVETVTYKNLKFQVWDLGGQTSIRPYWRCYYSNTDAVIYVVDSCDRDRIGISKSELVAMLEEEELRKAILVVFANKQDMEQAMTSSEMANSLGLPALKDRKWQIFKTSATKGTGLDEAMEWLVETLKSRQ
# UniProt Q8N8R7: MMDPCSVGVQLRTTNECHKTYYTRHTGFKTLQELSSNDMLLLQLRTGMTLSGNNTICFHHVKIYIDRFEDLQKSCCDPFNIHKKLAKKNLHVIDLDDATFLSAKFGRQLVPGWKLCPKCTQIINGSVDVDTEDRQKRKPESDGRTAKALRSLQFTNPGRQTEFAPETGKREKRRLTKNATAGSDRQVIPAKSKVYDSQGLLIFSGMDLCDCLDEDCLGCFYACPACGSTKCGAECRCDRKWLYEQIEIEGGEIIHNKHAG
# UniProt Q96C12: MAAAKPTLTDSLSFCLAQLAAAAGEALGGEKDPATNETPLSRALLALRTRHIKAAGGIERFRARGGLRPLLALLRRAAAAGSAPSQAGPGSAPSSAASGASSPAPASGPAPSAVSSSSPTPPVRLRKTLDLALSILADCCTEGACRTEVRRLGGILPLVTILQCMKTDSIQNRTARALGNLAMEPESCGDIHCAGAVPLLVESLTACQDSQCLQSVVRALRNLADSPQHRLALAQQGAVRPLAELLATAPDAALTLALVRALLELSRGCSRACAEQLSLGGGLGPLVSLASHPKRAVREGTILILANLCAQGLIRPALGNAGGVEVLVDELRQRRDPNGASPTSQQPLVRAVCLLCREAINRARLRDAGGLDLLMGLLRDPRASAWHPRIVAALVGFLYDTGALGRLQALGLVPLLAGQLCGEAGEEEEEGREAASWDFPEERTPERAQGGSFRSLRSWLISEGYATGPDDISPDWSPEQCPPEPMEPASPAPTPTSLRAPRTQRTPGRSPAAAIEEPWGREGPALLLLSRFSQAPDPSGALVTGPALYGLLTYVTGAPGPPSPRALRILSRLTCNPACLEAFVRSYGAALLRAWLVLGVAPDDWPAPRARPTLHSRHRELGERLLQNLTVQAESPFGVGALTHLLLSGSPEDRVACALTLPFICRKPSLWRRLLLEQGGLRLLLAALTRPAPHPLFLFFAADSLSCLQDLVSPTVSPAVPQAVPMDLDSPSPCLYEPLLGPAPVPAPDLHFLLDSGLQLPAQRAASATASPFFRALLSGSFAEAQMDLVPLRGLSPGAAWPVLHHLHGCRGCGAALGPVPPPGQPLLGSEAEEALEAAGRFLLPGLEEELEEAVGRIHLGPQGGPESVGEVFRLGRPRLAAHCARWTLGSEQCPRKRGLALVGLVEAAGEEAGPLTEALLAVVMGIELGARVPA
# UniProt O95376: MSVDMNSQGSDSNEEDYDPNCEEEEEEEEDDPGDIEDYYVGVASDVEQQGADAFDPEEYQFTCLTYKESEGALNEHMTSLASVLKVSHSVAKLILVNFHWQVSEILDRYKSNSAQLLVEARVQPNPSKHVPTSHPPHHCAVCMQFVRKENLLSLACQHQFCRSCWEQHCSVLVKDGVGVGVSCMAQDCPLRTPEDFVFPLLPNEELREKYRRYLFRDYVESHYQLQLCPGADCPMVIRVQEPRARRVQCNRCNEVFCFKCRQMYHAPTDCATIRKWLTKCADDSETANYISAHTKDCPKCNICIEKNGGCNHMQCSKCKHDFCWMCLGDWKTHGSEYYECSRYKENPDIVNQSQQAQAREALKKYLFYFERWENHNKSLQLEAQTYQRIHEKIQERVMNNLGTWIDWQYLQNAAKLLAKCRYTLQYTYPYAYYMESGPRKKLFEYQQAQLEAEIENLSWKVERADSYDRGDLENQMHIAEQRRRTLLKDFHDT
# UniProt Q8IUR7, whole entry, looked up: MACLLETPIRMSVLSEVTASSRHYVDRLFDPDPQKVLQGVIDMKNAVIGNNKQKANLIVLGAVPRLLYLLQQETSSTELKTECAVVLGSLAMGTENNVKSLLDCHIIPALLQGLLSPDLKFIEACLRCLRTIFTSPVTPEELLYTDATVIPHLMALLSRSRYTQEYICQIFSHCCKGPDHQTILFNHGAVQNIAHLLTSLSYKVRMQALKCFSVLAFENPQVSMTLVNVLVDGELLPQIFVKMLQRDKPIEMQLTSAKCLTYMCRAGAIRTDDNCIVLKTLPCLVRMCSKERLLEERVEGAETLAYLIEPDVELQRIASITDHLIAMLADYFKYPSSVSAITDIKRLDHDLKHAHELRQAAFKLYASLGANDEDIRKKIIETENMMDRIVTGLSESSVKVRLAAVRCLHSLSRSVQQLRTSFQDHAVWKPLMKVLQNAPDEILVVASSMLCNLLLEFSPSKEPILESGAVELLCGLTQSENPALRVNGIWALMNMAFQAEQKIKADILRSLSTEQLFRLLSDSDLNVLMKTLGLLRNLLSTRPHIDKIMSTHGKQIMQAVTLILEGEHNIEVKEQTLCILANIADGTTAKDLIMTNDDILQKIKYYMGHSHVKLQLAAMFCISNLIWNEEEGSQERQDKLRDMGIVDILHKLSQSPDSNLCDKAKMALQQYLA
# UniProt Q8N392: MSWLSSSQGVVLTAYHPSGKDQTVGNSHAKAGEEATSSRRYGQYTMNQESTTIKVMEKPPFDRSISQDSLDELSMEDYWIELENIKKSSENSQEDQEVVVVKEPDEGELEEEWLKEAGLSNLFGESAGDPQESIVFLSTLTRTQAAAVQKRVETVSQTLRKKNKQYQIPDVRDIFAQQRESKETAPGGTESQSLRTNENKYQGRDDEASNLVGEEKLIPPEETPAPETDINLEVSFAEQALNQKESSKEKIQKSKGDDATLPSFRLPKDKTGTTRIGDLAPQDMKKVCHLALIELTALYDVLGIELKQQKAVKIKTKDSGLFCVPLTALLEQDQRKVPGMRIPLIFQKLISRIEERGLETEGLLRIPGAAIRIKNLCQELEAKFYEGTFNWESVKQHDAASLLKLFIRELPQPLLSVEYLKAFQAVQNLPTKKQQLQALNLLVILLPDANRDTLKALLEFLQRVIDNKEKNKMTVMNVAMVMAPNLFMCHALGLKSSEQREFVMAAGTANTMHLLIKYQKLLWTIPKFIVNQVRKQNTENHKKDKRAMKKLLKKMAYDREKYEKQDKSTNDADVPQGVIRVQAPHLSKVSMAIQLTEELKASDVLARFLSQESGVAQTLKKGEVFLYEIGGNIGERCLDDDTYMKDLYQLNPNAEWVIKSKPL
# UniProt P05067, whole entry, looked up: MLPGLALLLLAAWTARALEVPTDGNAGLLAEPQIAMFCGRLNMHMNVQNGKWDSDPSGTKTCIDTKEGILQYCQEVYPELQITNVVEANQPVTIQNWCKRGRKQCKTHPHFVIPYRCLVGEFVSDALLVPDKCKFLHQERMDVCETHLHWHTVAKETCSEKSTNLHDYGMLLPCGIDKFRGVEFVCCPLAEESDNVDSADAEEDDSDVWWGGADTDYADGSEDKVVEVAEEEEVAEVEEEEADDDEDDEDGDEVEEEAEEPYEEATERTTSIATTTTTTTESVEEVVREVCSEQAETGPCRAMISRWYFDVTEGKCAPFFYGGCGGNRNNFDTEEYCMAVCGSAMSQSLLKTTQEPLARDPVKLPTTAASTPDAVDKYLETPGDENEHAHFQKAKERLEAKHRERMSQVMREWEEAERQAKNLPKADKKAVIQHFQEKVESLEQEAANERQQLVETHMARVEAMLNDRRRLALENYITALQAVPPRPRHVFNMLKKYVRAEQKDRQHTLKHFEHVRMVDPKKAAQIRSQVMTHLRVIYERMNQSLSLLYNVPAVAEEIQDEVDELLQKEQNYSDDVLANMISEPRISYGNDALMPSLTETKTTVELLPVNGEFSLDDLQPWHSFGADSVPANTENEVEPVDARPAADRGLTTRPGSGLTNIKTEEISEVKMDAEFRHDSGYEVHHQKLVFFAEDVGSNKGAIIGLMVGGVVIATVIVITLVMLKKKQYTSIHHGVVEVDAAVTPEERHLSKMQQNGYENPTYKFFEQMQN
# UniProt P62330: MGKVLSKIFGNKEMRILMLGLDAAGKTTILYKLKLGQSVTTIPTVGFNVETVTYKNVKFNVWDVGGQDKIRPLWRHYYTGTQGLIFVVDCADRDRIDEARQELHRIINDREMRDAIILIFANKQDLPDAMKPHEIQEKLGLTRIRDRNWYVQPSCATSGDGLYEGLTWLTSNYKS
# The other results are listed elsewhere or left out.
# Compound: CC1Cc2ccccc2N1C(=O)C1CCCN(C1)C(=O)CCl (mixture of isomers) [TRIM25 ligand 11 (diastereomer mixture)]
# Experiment: probe-labelled cysteine peptide fold change vs DMSO (competition) (log2 fold change); higher = less target engagement (more negative = stronger competition)
# Details: 10 µM; THP-1; incubation time: 4 h
# 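Note: competitive chemoproteomic profiling in live THP-1 cells with an iodoacetamide desthiobiotin (IA-DTB) probe, comparing probe-labelled peptide intensities in compound-treated cells against DMSO-treated controls.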
row,Target,probe-labelled cysteine peptide fold change
1,ARHGEF10_O15013_809_AADCCR (UniProt O15013),-0.0182
2,ARID1B_Q8NFD5_1919_SRDETPLCTIAHWQDSLAK (UniProt Q8NFD5),0.0694
3,ARL2_P36404_153+157_SHHWCIQGCSAVTGENLLPGIDWLLDDISSR (UniProt P36404),0.251
4,AQR_O60306_96_AYLMSICCMVNEK (UniProt O60306),-0.074
5,ARHGAP17_Q68EM7_190_EEMDEAGNKVEQCK (UniProt Q68EM7),-0.0498
6,ARHGEF12_Q9NZN5_784_EVLLGLKPCEIK (UniProt Q9NZN5),-0.0857
7,ARHGAP35_Q9NRY4_663_LPVNSFQTPTFQPHGCLCLYNSK (UniProt Q9NRY4),0.0228
8,ARHGEF18_Q6ZSZ5_788_AVESCPDEEEGPFSLPEEERK (UniProt Q6ZSZ5),0.0507
9,ARID4B_Q4LE39_420_ECENVK (UniProt Q4LE39),-0.173
10,ARHGEF10_O15013_959_ILCMLYVPVEEK (UniProt O15013),0.141
11,ARMC1_Q9NVT9_69_YLAECR (UniProt Q9NVT9),-0.126
12,ARAP3_Q8WWN8_1215_KVPLAQAGCLFTGIR (UniProt Q8WWN8),-0.0673
13,ARIH1_Q9Y4X5_357_DGGCNHMVCR (UniProt Q9Y4X5),-0.0941
14,ARID2_Q68CP9_82_SCSNAAFALK (UniProt Q68CP9),-0.0553
15,ARHGEF10_O15013_808+809_AADCCR (UniProt O15013),0.0459
16,ARL1_P40616_80_CYYSNTDAVIYVVDSCDRDR (UniProt P40616),0.0986
17,ARID2_Q68CP9_1634_KPGQNFMCLWQSCK (UniProt Q68CP9),-0.094
18,ARL14EP_Q8N8R7_119_CTQIINGSVDVDTEDRQK (UniProt Q8N8R7),0.0209
19,ARMC5_Q96C12_273_ACAEQLSLGGGLGPLVSLASHPK (UniProt Q96C12),-0.155

row,Target,probe-labelled cysteine peptide fold change
1,ARHGAP17_Q68EM7_53_RLVACFQGQHGTDAER (UniProt Q68EM7),0.0321
2,AQR_O60306_250_VHYCER (UniProt O60306),0.113
3,ARID1B_Q8NFD5_1093_LYVCVK (UniProt Q8NFD5),0.0565
4,ARHGEF10_O15013_477_EILQCHSLFQIALASR (UniProt O15013),0.08
5,ARIH2_O95376_188_DGVGVGVSCMAQDCPLR (UniProt O95376),-0.0824
6,ARHGAP30_Q7Z6I6_407_CAGVHISDPYNVNLPLHITSILSVPPNIISNVSLAR (UniProt Q7Z6I6),-0.395
7,ARID1B_Q8NFD5_2074_LVLETLCK (UniProt Q8NFD5),-0.204
8,ARID2_Q68CP9_538_FACQWLNAHFEVNPDCSVSR (UniProt Q68CP9),0.126
9,ARMC8_Q8IUR7_578_EQTLCILANIADGTTAK (UniProt Q8IUR7),0.102
10,ARHGAP18_Q8N392_323_DSGLFCVPLTALLEQDQR (UniProt Q8N392),-0.155
11,ARHGAP45_Q92619_136_ECVLRDDLLEAR (UniProt Q92619),-0.0608
12,AQR_O60306_681_NLMNTDCVVPDWLHDIILGYGDPSSAHYSK (UniProt O60306),0.236
13,ARHGEF2_Q92974_68+71_EALICPTCNVTIHNR (UniProt Q92974),0.202
14,ARHGEF10_O15013_1335_ASSALVVCGGQGHR (UniProt O15013),-0.169
15,ARIH2_O95376_323_HDFCWMCLGDWK (UniProt O95376),0.00756
16,APP_P05067_117_CLVGEFVSDALLVPDK (UniProt P05067),-0.171
17,ARF6_P62330_90_HYYTGTQGLIFVVDCADRDR (UniProt P62330),0.0124
18,AQR_O60306_28_IVAPTVSQINAEFVTQLACK (UniProt O60306),0.0381
19,APPL1_Q9UKG1_328_GDVAGGLAMDIDNCSVMAVDCEDRR (UniProt Q9UKG1),-0.254

# Same assay, conditions: 50 µM; THP-1; incubation time: 4 h
row,Target,probe-labelled cysteine peptide fold change
1,ARHGEF10_O15013_809_AADCCR (UniProt O15013),-0.0452
2,ARID1B_Q8NFD5_1919_SRDETPLCTIAHWQDSLAK (UniProt Q8NFD5),-0.184
3,ARL2_P36404_153+157_SHHWCIQGCSAVTGENLLPGIDWLLDDISSR (UniProt P36404),0.0746
4,AQR_O60306_96_AYLMSICCMVNEK (UniProt O60306),0.0351
5,ARHGAP17_Q68EM7_190_EEMDEAGNKVEQCK (UniProt Q68EM7),0.0528
6,ARHGEF12_Q9NZN5_784_EVLLGLKPCEIK (UniProt Q9NZN5),-0.0468
7,ARHGAP35_Q9NRY4_663_LPVNSFQTPTFQPHGCLCLYNSK (UniProt Q9NRY4),0.0815
8,ARHGEF18_Q6ZSZ5_788_AVESCPDEEEGPFSLPEEERK (UniProt Q6ZSZ5),-0.106
9,ARID4B_Q4LE39_420_ECENVK (UniProt Q4LE39),-0.212
10,ARHGEF10_O15013_959_ILCMLYVPVEEK (UniProt O15013),0.25
11,ARMC1_Q9NVT9_69_YLAECR (UniProt Q9NVT9),-0.0139
12,ARAP3_Q8WWN8_1215_KVPLAQAGCLFTGIR (UniProt Q8WWN8),-0.0217
13,ARIH1_Q9Y4X5_357_DGGCNHMVCR (UniProt Q9Y4X5),-0.0997
14,ARID2_Q68CP9_82_SCSNAAFALK (UniProt Q68CP9),-0.173
15,ARHGEF10_O15013_808+809_AADCCR (UniProt O15013),0.0127
16,ARL1_P40616_80_CYYSNTDAVIYVVDSCDRDR (UniProt P40616),0.0972
17,ARID2_Q68CP9_1634_KPGQNFMCLWQSCK (UniProt Q68CP9),-0.158
18,ARL14EP_Q8N8R7_119_CTQIINGSVDVDTEDRQK (UniProt Q8N8R7),0.301
19,ARMC5_Q96C12_273_ACAEQLSLGGGLGPLVSLASHPK (UniProt Q96C12),0.0269

row,Target,probe-labelled cysteine peptide fold change
1,ARHGAP17_Q68EM7_53_RLVACFQGQHGTDAER (UniProt Q68EM7),-0.0173
2,AQR_O60306_250_VHYCER (UniProt O60306),0.175
3,ARID1B_Q8NFD5_1093_LYVCVK (UniProt Q8NFD5),0.149
4,ARHGEF10_O15013_477_EILQCHSLFQIALASR (UniProt O15013),0.249
5,ARIH2_O95376_188_DGVGVGVSCMAQDCPLR (UniProt O95376),-0.0406
6,ARHGAP30_Q7Z6I6_407_CAGVHISDPYNVNLPLHITSILSVPPNIISNVSLAR (UniProt Q7Z6I6),-0.249
7,ARID1B_Q8NFD5_2074_LVLETLCK (UniProt Q8NFD5),0.341
8,ARID2_Q68CP9_538_FACQWLNAHFEVNPDCSVSR (UniProt Q68CP9),0.237
9,ARMC8_Q8IUR7_578_EQTLCILANIADGTTAK (UniProt Q8IUR7),0.0992
10,ARHGAP18_Q8N392_323_DSGLFCVPLTALLEQDQR (UniProt Q8N392),-0.199
11,ARHGAP45_Q92619_136_ECVLRDDLLEAR (UniProt Q92619),-0.171
12,AQR_O60306_681_NLMNTDCVVPDWLHDIILGYGDPSSAHYSK (UniProt O60306),0.0307
13,ARHGEF2_Q92974_68+71_EALICPTCNVTIHNR (UniProt Q92974),-0.0187
14,ARHGEF10_O15013_1335_ASSALVVCGGQGHR (UniProt O15013),-0.173
15,ARIH2_O95376_323_HDFCWMCLGDWK (UniProt O95376),-0.0543
16,APP_P05067_117_CLVGEFVSDALLVPDK (UniProt P05067),-0.204
17,ARF6_P62330_90_HYYTGTQGLIFVVDCADRDR (UniProt P62330),-0.0303
18,AQR_O60306_28_IVAPTVSQINAEFVTQLACK (UniProt O60306),0.0549
19,APPL1_Q9UKG1_328_GDVAGGLAMDIDNCSVMAVDCEDRR (UniProt Q9UKG1),-0.395
